In paper PMC11441976:
No constants are given. Whether binding was seen depends on the method and setting. Some binding calls cover weakened binding; strength is not graded here.

Target: IRF3 of G. gallus, endogenous in DF-1 cells (G. gallus (endogenous in DF-1)) (UniProt Q90643)
Experiment: native gel or EMSA

B1: IRF3 of G. gallus, endogenous in DF-1 cells (protein, UniProt Q90643 1-491)
chain: MAALDSEGDAQKLRFGPWLLNAVSSGLYRGLCWIDPDRRIFRIPWKHNARKDVTSSDVEIFKAWAKASGRYEGNAEDPAKWKTNFRCALRSTHMFMLLEDRSKCNDDPHKVYAVASGVPNDRGSGGPVAGALQQQPQLLLNHHDLALENTPTDSTEGVAAAALTQVDLDLLQSVLQHCNISALGSQPTLWAHTGDALPEDALLLPGQDGCLPGPQFQDWRQLEEPLLLGNQPLTGGGCGQDGAGALPVSEECAIPAPSPAEELLFQSANPAPPPPAGDIGGLPPLLDITIYYRGKMVYQEQVDDSRCVLAYQPLDPAVAEQRLVLFPSPASLPDPRQRRYTEDLLEVAGLRLEQRAGQLLATRLKKCKVFWALSQQLEGGEPPLNLLHRDQETTIFDFRVFCTELRDFRDSRRERSPDFTIFLCFGQCFSSTKPKESKLILVKLVPQFCEYWYEQVQRGGASSLNSGNVSLQLSDSFNLFELIEQYHMQTD
- binding: binds
